# According to the supplement of paper PMC11438910:
# The other results are listed elsewhere or left out. The signal is at background level for most entries.
# Legend:
# Experiment in all cases: fluorescence intensity of antibody binding to polysaccharide-coupled beads; higher = stronger binding
# [1] = biological target: pneumococcal polysaccharide Pn25A
# [2] = biological target: pneumococcal polysaccharide Pn25F
# [3] = biological target: pneumococcal polysaccharide Pn27
# [4] = biological target: pneumococcal polysaccharide Pn28A
# [5] = biological target: pneumococcal polysaccharide Pn28F
# [6] = biological target: pneumococcal polysaccharide Pn29
# [7] = biological target: pneumococcal polysaccharide Pn3
# [8] = biological target: pneumococcal polysaccharide Pn31
# [9] = biological target: pneumococcal polysaccharide Pn32A
# [10] = biological target: pneumococcal polysaccharide Pn32F
# [11] = biological target: pneumococcal polysaccharide Pn33A
# [12] = biological target: pneumococcal polysaccharide Pn33B
# [13] = biological target: pneumococcal polysaccharide Pn33C
# [14] = biological target: pneumococcal polysaccharide Pn33D
# [15] = biological target: pneumococcal polysaccharide Pn33F
# [16] = biological target: pneumococcal polysaccharide Pn34
# [17] = biological target: pneumococcal polysaccharide Pn35A
# [18] = biological target: pneumococcal polysaccharide Pn35B
# [19] = biological target: pneumococcal polysaccharide Pn35C
# [20] = biological target: pneumococcal polysaccharide Pn35F
# [21] = biological target: pneumococcal polysaccharide Pn36
# [22] = biological target: pneumococcal polysaccharide Pn37
# [23] = biological target: pneumococcal polysaccharide Pn38
# [24] = antibody concentration 0.1 ng/mL
# [25] = antibody concentration 0.534724 ng/mL
# [26] = antibody concentration 2.8593 ng/mL
# [27] = antibody concentration 15.2894 ng/mL
# [28] = antibody concentration 81.7561 ng/mL
# [29] = antibody concentration 437.17 ng/mL
# [30] = antibody concentration 2337.65 ng/mL
# [31] = antibody concentration 12500 ng/mL
binder,measurement,setting,value
4-80.3 (protein) chain 1: QVQLQESGPGLVKPSETLSLTCAVSGGSFSSYWWSWIRQPPGKGLEWIGEINGNSGSTNYNPSLKSRVTISKDASKNQFSLKLSSVTAADTAVYYCARYKNVWGRGVLVTVSS chain 2: DVVMTQSPLSLPITPGQPASISCRSSQSLVHSNGNTYLSWYQQKPGQPPRRLIYQVSNRDSGVPDRFSGSGAGTDFTLKISRVEAEDVGVYYCGQGTNVPTFGQGTKVEIK,fluorescence intensity,[1]; [24],22.8 MFI
same,fluorescence intensity,[1]; [25],24 MFI
same,fluorescence intensity,[1]; [26],24 MFI
same,fluorescence intensity,[1]; [27],25 MFI
same,fluorescence intensity,[1]; [28],26 MFI
same,fluorescence intensity,[1]; [29],27.5 MFI
same,fluorescence intensity,[1]; [30],37.5 MFI
same,fluorescence intensity,[1]; [31],71.5 MFI
same,fluorescence intensity,[2]; [24],30 MFI
same,fluorescence intensity,[2]; [25],30.2 MFI
same,fluorescence intensity,[2]; [26],32.2 MFI
same,fluorescence intensity,[2]; [27],31 MFI
same,fluorescence intensity,[2]; [28],33 MFI
same,fluorescence intensity,[2]; [29],34.5 MFI
same,fluorescence intensity,[2]; [30],43 MFI
same,fluorescence intensity,[2]; [31],102 MFI
same,fluorescence intensity,[3]; [24],16.8 MFI
same,fluorescence intensity,[3]; [25],16.5 MFI
same,fluorescence intensity,[3]; [26],17.5 MFI
same,fluorescence intensity,[3]; [27],18.5 MFI
same,fluorescence intensity,[3]; [28],18.5 MFI
same,fluorescence intensity,[3]; [29],33.5 MFI
same,fluorescence intensity,[3]; [30],132 MFI
same,fluorescence intensity,[3]; [31],685 MFI
same,fluorescence intensity,[4]; [24],26 MFI
same,fluorescence intensity,[4]; [25],27.2 MFI
same,fluorescence intensity,[4]; [26],28.5 MFI
same,fluorescence intensity,[4]; [27],28.5 MFI
same,fluorescence intensity,[4]; [28],28 MFI
same,fluorescence intensity,[4]; [29],31.5 MFI
same,fluorescence intensity,[4]; [30],36.2 MFI
same,fluorescence intensity,[4]; [31],75 MFI
same,fluorescence intensity,[5]; [24],30 MFI
same,fluorescence intensity,[5]; [25],32 MFI
same,fluorescence intensity,[5]; [26],30 MFI
same,fluorescence intensity,[5]; [27],33.5 MFI
same,fluorescence intensity,[5]; [28],32 MFI
same,fluorescence intensity,[5]; [29],36.2 MFI
same,fluorescence intensity,[5]; [30],73 MFI
same,fluorescence intensity,[5]; [31],318 MFI
same,fluorescence intensity,[6]; [24],14.5 MFI
same,fluorescence intensity,[6]; [25],18.2 MFI
same,fluorescence intensity,[6]; [26],17 MFI
same,fluorescence intensity,[6]; [27],17 MFI
same,fluorescence intensity,[6]; [28],17.5 MFI
same,fluorescence intensity,[6]; [29],24.5 MFI
same,fluorescence intensity,[6]; [30],81.2 MFI
same,fluorescence intensity,[6]; [31],516 MFI
same,fluorescence intensity,[7]; [24],13.8 MFI
same,fluorescence intensity,[7]; [25],14 MFI
same,fluorescence intensity,[7]; [26],14.5 MFI
same,fluorescence intensity,[7]; [27],18 MFI
same,fluorescence intensity,[7]; [28],35.8 MFI
same,fluorescence intensity,[7]; [29],220 MFI
same,fluorescence intensity,[7]; [30],762 MFI
same,fluorescence intensity,[7]; [31],2490 MFI
same,fluorescence intensity,[8]; [24],14 MFI
same,fluorescence intensity,[8]; [25],14.8 MFI
same,fluorescence intensity,[8]; [26],15.5 MFI
same,fluorescence intensity,[8]; [27],15.5 MFI
same,fluorescence intensity,[8]; [28],16 MFI
same,fluorescence intensity,[8]; [29],25 MFI
same,fluorescence intensity,[8]; [30],94 MFI
same,fluorescence intensity,[8]; [31],660 MFI
same,fluorescence intensity,[9]; [24],18.2 MFI
same,fluorescence intensity,[9]; [25],18.8 MFI
same,fluorescence intensity,[9]; [26],18.5 MFI
same,fluorescence intensity,[9]; [27],19 MFI
same,fluorescence intensity,[9]; [28],18 MFI
same,fluorescence intensity,[9]; [29],22.8 MFI
same,fluorescence intensity,[9]; [30],37.8 MFI
same,fluorescence intensity,[9]; [31],138 MFI
same,fluorescence intensity,[10]; [24],26 MFI
same,fluorescence intensity,[10]; [25],28.5 MFI
same,fluorescence intensity,[10]; [26],28.5 MFI
same,fluorescence intensity,[10]; [27],30 MFI
same,fluorescence intensity,[10]; [28],31 MFI
same,fluorescence intensity,[10]; [29],39.5 MFI
same,fluorescence intensity,[10]; [30],60.8 MFI
same,fluorescence intensity,[10]; [31],161 MFI
same,fluorescence intensity,[11]; [24],18 MFI
same,fluorescence intensity,[11]; [25],17.5 MFI
same,fluorescence intensity,[11]; [26],18.5 MFI
same,fluorescence intensity,[11]; [27],16.5 MFI
same,fluorescence intensity,[11]; [28],18.2 MFI
same,fluorescence intensity,[11]; [29],27.8 MFI
same,fluorescence intensity,[11]; [30],214 MFI
same,fluorescence intensity,[11]; [31],1730 MFI
same,fluorescence intensity,[12]; [24],18.5 MFI
same,fluorescence intensity,[12]; [25],18.5 MFI
same,fluorescence intensity,[12]; [26],18.8 MFI
same,fluorescence intensity,[12]; [27],18 MFI
same,fluorescence intensity,[12]; [28],17 MFI
same,fluorescence intensity,[12]; [29],18 MFI
same,fluorescence intensity,[12]; [30],19.5 MFI
same,fluorescence intensity,[12]; [31],32.8 MFI
same,fluorescence intensity,[13]; [24],18.8 MFI
same,fluorescence intensity,[13]; [25],19.8 MFI
same,fluorescence intensity,[13]; [26],20.2 MFI
same,fluorescence intensity,[13]; [27],18.2 MFI
same,fluorescence intensity,[13]; [28],20.5 MFI
same,fluorescence intensity,[13]; [29],21 MFI
same,fluorescence intensity,[13]; [30],35.5 MFI
same,fluorescence intensity,[13]; [31],168 MFI
same,fluorescence intensity,[14]; [24],16.5 MFI
same,fluorescence intensity,[14]; [25],17 MFI
same,fluorescence intensity,[14]; [26],15.2 MFI
same,fluorescence intensity,[14]; [27],16.5 MFI
same,fluorescence intensity,[14]; [28],16 MFI
same,fluorescence intensity,[14]; [29],16.5 MFI
same,fluorescence intensity,[14]; [30],20.2 MFI
same,fluorescence intensity,[14]; [31],54.2 MFI
same,fluorescence intensity,[15]; [24],13.5 MFI
same,fluorescence intensity,[15]; [25],12 MFI
same,fluorescence intensity,[15]; [26],14 MFI
same,fluorescence intensity,[15]; [27],14 MFI
same,fluorescence intensity,[15]; [28],14 MFI
same,fluorescence intensity,[15]; [29],29.8 MFI
same,fluorescence intensity,[15]; [30],124 MFI
same,fluorescence intensity,[15]; [31],818 MFI
same,fluorescence intensity,[16]; [24],12 MFI
same,fluorescence intensity,[16]; [25],14.8 MFI
same,fluorescence intensity,[16]; [26],14.5 MFI
same,fluorescence intensity,[16]; [27],13.8 MFI
same,fluorescence intensity,[16]; [28],13.8 MFI
same,fluorescence intensity,[16]; [29],13.8 MFI
same,fluorescence intensity,[16]; [30],20.5 MFI
same,fluorescence intensity,[16]; [31],46 MFI
same,fluorescence intensity,[17]; [24],19.5 MFI
same,fluorescence intensity,[17]; [25],17 MFI
same,fluorescence intensity,[17]; [26],16 MFI
same,fluorescence intensity,[17]; [27],16.2 MFI
same,fluorescence intensity,[17]; [28],16.5 MFI
same,fluorescence intensity,[17]; [29],19 MFI
same,fluorescence intensity,[17]; [30],50 MFI
same,fluorescence intensity,[17]; [31],364 MFI
same,fluorescence intensity,[18]; [24],19 MFI
same,fluorescence intensity,[18]; [25],18.2 MFI
same,fluorescence intensity,[18]; [26],18 MFI
same,fluorescence intensity,[18]; [27],18 MFI
same,fluorescence intensity,[18]; [28],18 MFI
same,fluorescence intensity,[18]; [29],19 MFI
same,fluorescence intensity,[18]; [30],39.5 MFI
same,fluorescence intensity,[18]; [31],204 MFI
same,fluorescence intensity,[19]; [24],19.5 MFI
same,fluorescence intensity,[19]; [25],21.5 MFI
same,fluorescence intensity,[19]; [26],19.5 MFI
same,fluorescence intensity,[19]; [27],19.5 MFI
same,fluorescence intensity,[19]; [28],20 MFI
same,fluorescence intensity,[19]; [29],20.2 MFI
same,fluorescence intensity,[19]; [30],22 MFI
same,fluorescence intensity,[19]; [31],35.2 MFI
same,fluorescence intensity,[20]; [24],18.2 MFI
same,fluorescence intensity,[20]; [25],20 MFI
same,fluorescence intensity,[20]; [26],17.5 MFI
same,fluorescence intensity,[20]; [27],17 MFI
same,fluorescence intensity,[20]; [28],19.8 MFI
same,fluorescence intensity,[20]; [29],22.2 MFI
same,fluorescence intensity,[20]; [30],23.5 MFI
same,fluorescence intensity,[20]; [31],37.5 MFI
same,fluorescence intensity,[21]; [24],15.8 MFI
same,fluorescence intensity,[21]; [25],17 MFI
same,fluorescence intensity,[21]; [26],16.5 MFI
same,fluorescence intensity,[21]; [27],15.5 MFI
same,fluorescence intensity,[21]; [28],17 MFI
same,fluorescence intensity,[21]; [29],24.5 MFI
same,fluorescence intensity,[21]; [30],75.8 MFI
same,fluorescence intensity,[21]; [31],492 MFI
same,fluorescence intensity,[22]; [24],24.5 MFI
same,fluorescence intensity,[22]; [25],26 MFI
same,fluorescence intensity,[22]; [26],27 MFI
same,fluorescence intensity,[22]; [27],26.2 MFI
same,fluorescence intensity,[22]; [28],29.5 MFI
same,fluorescence intensity,[22]; [29],58 MFI
same,fluorescence intensity,[22]; [30],282 MFI
same,fluorescence intensity,[22]; [31],1350 MFI
same,fluorescence intensity,[23]; [24],26.2 MFI
same,fluorescence intensity,[23]; [25],24.5 MFI
same,fluorescence intensity,[23]; [26],26.5 MFI
same,fluorescence intensity,[23]; [27],26 MFI

# As a working copy, some entries already given:
binder,measurement,setting,value
4-80.3 (protein) chain 1: QVQLQESGPGLVKPSETLSLTCAVSGGSFSSYWWSWIRQPPGKGLEWIGEINGNSGSTNYNPSLKSRVTISKDASKNQFSLKLSSVTAADTAVYYCARYKNVWGRGVLVTVSS chain 2: DVVMTQSPLSLPITPGQPASISCRSSQSLVHSNGNTYLSWYQQKPGQPPRRLIYQVSNRDSGVPDRFSGSGAGTDFTLKISRVEAEDVGVYYCGQGTNVPTFGQGTKVEIK,fluorescence intensity,[3]; [25],16.5 MFI
same,fluorescence intensity,[3]; [26],17.5 MFI
same,fluorescence intensity,[3]; [27],18.5 MFI
same,fluorescence intensity,[3]; [28],18.5 MFI
same,fluorescence intensity,[3]; [29],33.5 MFI
same,fluorescence intensity,[3]; [30],132 MFI
same,fluorescence intensity,[3]; [31],685 MFI
same,fluorescence intensity,[4]; [24],26 MFI
same,fluorescence intensity,[4]; [25],27.2 MFI
same,fluorescence intensity,[4]; [26],28.5 MFI
same,fluorescence intensity,[4]; [27],28.5 MFI
same,fluorescence intensity,[4]; [28],28 MFI
same,fluorescence intensity,[4]; [29],31.5 MFI
same,fluorescence intensity,[4]; [30],36.2 MFI
same,fluorescence intensity,[4]; [31],75 MFI
same,fluorescence intensity,[5]; [24],30 MFI
same,fluorescence intensity,[5]; [25],32 MFI
same,fluorescence intensity,[5]; [26],30 MFI
same,fluorescence intensity,[5]; [27],33.5 MFI
same,fluorescence intensity,[5]; [28],32 MFI
same,fluorescence intensity,[5]; [29],36.2 MFI
same,fluorescence intensity,[5]; [30],73 MFI
same,fluorescence intensity,[5]; [31],318 MFI
same,fluorescence intensity,[6]; [24],14.5 MFI
same,fluorescence intensity,[6]; [25],18.2 MFI
same,fluorescence intensity,[6]; [26],17 MFI
same,fluorescence intensity,[6]; [27],17 MFI
same,fluorescence intensity,[6]; [28],17.5 MFI
same,fluorescence intensity,[6]; [29],24.5 MFI
same,fluorescence intensity,[6]; [30],81.2 MFI
same,fluorescence intensity,[6]; [31],516 MFI
same,fluorescence intensity,[7]; [24],13.8 MFI
same,fluorescence intensity,[7]; [25],14 MFI
same,fluorescence intensity,[7]; [26],14.5 MFI
same,fluorescence intensity,[7]; [27],18 MFI
same,fluorescence intensity,[7]; [28],35.8 MFI
same,fluorescence intensity,[7]; [29],220 MFI
same,fluorescence intensity,[7]; [30],762 MFI
same,fluorescence intensity,[7]; [31],2490 MFI
same,fluorescence intensity,[8]; [24],14 MFI
same,fluorescence intensity,[8]; [25],14.8 MFI
same,fluorescence intensity,[8]; [26],15.5 MFI
same,fluorescence intensity,[8]; [27],15.5 MFI
same,fluorescence intensity,[8]; [28],16 MFI
same,fluorescence intensity,[8]; [29],25 MFI
same,fluorescence intensity,[8]; [30],94 MFI
same,fluorescence intensity,[8]; [31],660 MFI
same,fluorescence intensity,[9]; [24],18.2 MFI
same,fluorescence intensity,[9]; [25],18.8 MFI
